Results: the supplement of paper PMC8728848
Some of the results follow.

Key:
Assay in all cases: glycan array binding signal (z-score within array); higher = stronger binding
Details in all cases: glycan notation: IUPAC condensed, linker removed
GalNAc(b1-6)GalNAc = target: GalNAc(b1-6)GalNAc
How it was run: (§1)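 Glycan array data came from 3228 arrays in the Consortium for Functional Glycomics database, and only arrays with an available protein sequence were kept. Glycan names were put into IUPAC-condensed notation, and columns mapping to the same glycan were averaged. The binding signal is a within-array Z-score, averaged across arrays of one protein sequence run at different concentrations or buffers and across linkers. A negative Z-score can be read as non-binding.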

Glc(a1-4)Glc = target: Glc(a1-4)Glc
How it was run: as §1

[1] = target: Glc(a1-4)Glc(a1-4)Glc(a1-4)Glc
How it was run: as §1

Glc(a1-6)Glc(a1-6)Glc = target: Glc(a1-6)Glc(a1-6)Glc
How it was run: as §1

[2] = target: Glc(a1-6)Glc(a1-6)Glc(a1-6)Glc
How it was run: as §1

Glc(b1-4)Glc = target: Glc(b1-4)Glc
How it was run: as §1

Glc(b1-6)Glc = target: Glc(b1-6)Glc
How it was run: as §1

GlcA(b1-3)Gal = target: GlcA(b1-3)Gal
How it was run: as §1

GlcA(b1-3)GlcNAc = target: GlcA(b1-3)GlcNAc
How it was run: as §1

GlcA(b1-6)Gal = target: GlcA(b1-6)Gal
How it was run: as §1

[3] = target: GlcNAc(a1-3)Gal(b1-4)GlcNAc
How it was run: as §1

[4] = target: GlcNAc(a1-4)Gal(b1-3)GlcNAc
How it was run: as §1

[5] = target: GlcNAc(a1-4)Gal(b1-4)GalNAc
How it was run: as §1

[6] = target: GlcNAc(a1-4)Gal(b1-4)GlcNAc
How it was run: as §1

[7] = target: GlcNAc(a1-4)Gal(b1-4)GlcNAc(b1-3)Gal(b1-4)Glc
How it was run: as §1

[8] = target: GlcNAc(a1-4)Gal(b1-4)GlcNAc(b1-3)Gal(b1-4)GlcNAc
How it was run: as §1

[9] = target: GlcNAc(a1-4)Gal(b1-4)GlcNAc(b1-3)Gal(b1-4)GlcNAc(b1-3)Gal(b1-4)GlcNAc
How it was run: as §1

[10] = target: GlcNAc(a1-4)Gal(b1-4)GlcNAc(b1-3)Gal(b1-4)[Fuc(a1-3)]GlcNAc(b1-3)Gal(b1-4)[Fuc(a1-3)]GlcNAc
How it was run: as §1

[11] = target: GlcNAc(a1-6)Gal(b1-4)GlcNAc
How it was run: as §1

[12] = target: GlcNAc(b1-2)Gal(b1-3)GalNAc
How it was run: as §1

[13] = target: GlcNAc(b1-2)Man(a1-3)[GlcNAc(b1-2)Man(a1-6)]Man(b1-4)GlcNAc(b1-4)GlcNAc
How it was run: as §1

[14] = target: GlcNAc(b1-2)Man(a1-3)[GlcNAc(b1-2)Man(a1-6)]Man(b1-4)GlcNAc(b1-4)[Fuc(a1-6)]GlcNAc
How it was run: as §1

[15] = target: GlcNAc(b1-2)Man(a1-3)[GlcNAc(b1-4)][GlcNAc(b1-2)Man(a1-6)]Man(b1-4)GlcNAc(b1-4)GlcNAc
How it was run: as §1

[16] = target: GlcNAc(b1-2)[GlcNAc(b1-4)]Man(a1-3)[GlcNAc(b1-2)Man(a1-6)]Man(b1-4)GlcNAc(b1-4)GlcNAc
How it was run: as §1

[17] = target: GlcNAc(b1-2)[GlcNAc(b1-4)]Man(a1-3)[GlcNAc(b1-4)][GlcNAc(b1-2)Man(a1-6)]Man(b1-4)GlcNAc(b1-4)GlcNAc
How it was run: as §1

[18] = target: GlcNAc(b1-2)[GlcNAc(b1-4)]Man(a1-3)[GlcNAc(b1-4)][GlcNAc(b1-2)[GlcNAc(b1-6)]Man(a1-6)]Man(b1-4)GlcNAc(b1-4)GlcNAc
How it was run: as §1

[19] = target: GlcNAc(b1-2)[GlcNAc(b1-6)]Man(a1-6)[GlcNAc(b1-2)Man(a1-3)]Man(b1-4)GlcNAc(b1-4)GlcNAc
How it was run: as §1

[20] = target: GlcNAc(b1-2)[GlcNAc(b1-6)]Man(a1-6)[GlcNAc(b1-2)Man(a1-3)][GlcNAc(b1-4)]Man(b1-4)GlcNAc(b1-4)GlcNAc
How it was run: as §1

GlcNAc(b1-3)Gal = target: GlcNAc(b1-3)Gal
How it was run: as §1

[21] = target: GlcNAc(b1-3)Gal(b1-3)GalNAc
How it was run: as §1

GlcNAc(b1-3)Gal(b1-4)Glc = target: GlcNAc(b1-3)Gal(b1-4)Glc
How it was run: as §1

[22] = target: GlcNAc(b1-3)Gal(b1-4)GlcNAc
How it was run: as §1

[23] = target: GlcNAc(b1-3)Gal(b1-4)GlcNAc(b1-3)Gal(b1-4)GlcNAc
How it was run: as §1

GlcNAc(b1-3)GalNAc = target: GlcNAc(b1-3)GalNAc
How it was run: as §1

GlcNAc(b1-3)Man = target: GlcNAc(b1-3)Man
How it was run: as §1

[24] = target: GlcNAc(b1-3)[GlcNAc(b1-4)][GlcNAc(b1-6)]GlcNAc
How it was run: as §1

[25] = target: GlcNAc(b1-3)[GlcNAc(b1-6)]Gal(b1-4)GlcNAc
How it was run: as §1

B1: Layilin (Mus musculus), Q8C351 (protein)
chain: MQPGAALQAMLLAVLLAKPRDSKGRLLSASDLDPRGGQLVCRGGTRRPCYKVIYFHDAFQRLNFEEAKETCMEDGGQLVSIETEDEQRLIEKFIENLLASDGDFWIGLKRLEEKQSNNTACQDLYAWTDGSTSQFRNWYVDEPSCGSEVCVVMYHQPSAPPGIGGSYMFQWNDDRCNMKNNFICKYHDDKPSTTPSIWPGGEATEPATPLLPEETQKEDTKETFKERREAALNLAYILIPSIPLFLLLVVTSAVCWVWICRRKREQTDPSTKEQHTIWPTPRQENSPNLDVYNVIRKQSEADLAEPRPDLKNISFRVCSGEAMPDDMSCDYENIAVNPSESGFVTLASMESGFVTNDIYEFSPDRMGRSKESGWVENEIYY
GalNAc(b1-6)GalNAc
  glycan array binding signal (z-score): 0.453
Glc(a1-4)Glc
  glycan array binding signal (z-score): -0.525
[1]
  glycan array binding signal (z-score): -0.492
Glc(a1-6)Glc(a1-6)Glc
  glycan array binding signal (z-score): -0.491
[2]
  glycan array binding signal (z-score): -0.345
Glc(b1-4)Glc
  glycan array binding signal (z-score): -0.165
Glc(b1-6)Glc
  glycan array binding signal (z-score): -0.577
GlcA(b1-3)Gal
  glycan array binding signal (z-score): -0.373
GlcA(b1-3)GlcNAc
  glycan array binding signal (z-score): -0.524
GlcA(b1-6)Gal
  glycan array binding signal (z-score): -0.043
[3]
  glycan array binding signal (z-score): -0.188
[4]
  glycan array binding signal (z-score): -0.553
[5]
  glycan array binding signal (z-score): -1.4
[6]
  glycan array binding signal (z-score): -0.611
[7]
  glycan array binding signal (z-score): -0.409
[8]
  glycan array binding signal (z-score): 5.27
[9]
  glycan array binding signal (z-score): -1.16
[10]
  glycan array binding signal (z-score): 0.527
[11]
  glycan array binding signal (z-score): -0.022
[12]
  glycan array binding signal (z-score): -0.029
[13]
  glycan array binding signal (z-score): -0.868
[14]
  glycan array binding signal (z-score): 0.537
[15]
  glycan array binding signal (z-score): 0.29
[16]
  glycan array binding signal (z-score): -0.096
[17]
  glycan array binding signal (z-score): -0.333
[18]
  glycan array binding signal (z-score): -0.609
[19]
  glycan array binding signal (z-score): 2.32
[20]
  glycan array binding signal (z-score): -0.628
GlcNAc(b1-3)Gal
  glycan array binding signal (z-score): -0.521
[21]
  glycan array binding signal (z-score): 3.53
GlcNAc(b1-3)Gal(b1-4)Glc
  glycan array binding signal (z-score): 0.518
[22]
  glycan array binding signal (z-score): 0.267
[23]
  glycan array binding signal (z-score): 3.11
GlcNAc(b1-3)GalNAc
  glycan array binding signal (z-score): 0.103
GlcNAc(b1-3)Man
  glycan array binding signal (z-score): 0.015
[24]
  glycan array binding signal (z-score): -0.198
[25]
  glycan array binding signal (z-score): -0.29
